The values that follow come from article PMC11804907.

Protein sequences, listed by entry. Tags and fused reporters are not part of them. Lines headed by an entry give the natural chain unless they say otherwise; changes in a name come on top.
UniProt Q9VV79: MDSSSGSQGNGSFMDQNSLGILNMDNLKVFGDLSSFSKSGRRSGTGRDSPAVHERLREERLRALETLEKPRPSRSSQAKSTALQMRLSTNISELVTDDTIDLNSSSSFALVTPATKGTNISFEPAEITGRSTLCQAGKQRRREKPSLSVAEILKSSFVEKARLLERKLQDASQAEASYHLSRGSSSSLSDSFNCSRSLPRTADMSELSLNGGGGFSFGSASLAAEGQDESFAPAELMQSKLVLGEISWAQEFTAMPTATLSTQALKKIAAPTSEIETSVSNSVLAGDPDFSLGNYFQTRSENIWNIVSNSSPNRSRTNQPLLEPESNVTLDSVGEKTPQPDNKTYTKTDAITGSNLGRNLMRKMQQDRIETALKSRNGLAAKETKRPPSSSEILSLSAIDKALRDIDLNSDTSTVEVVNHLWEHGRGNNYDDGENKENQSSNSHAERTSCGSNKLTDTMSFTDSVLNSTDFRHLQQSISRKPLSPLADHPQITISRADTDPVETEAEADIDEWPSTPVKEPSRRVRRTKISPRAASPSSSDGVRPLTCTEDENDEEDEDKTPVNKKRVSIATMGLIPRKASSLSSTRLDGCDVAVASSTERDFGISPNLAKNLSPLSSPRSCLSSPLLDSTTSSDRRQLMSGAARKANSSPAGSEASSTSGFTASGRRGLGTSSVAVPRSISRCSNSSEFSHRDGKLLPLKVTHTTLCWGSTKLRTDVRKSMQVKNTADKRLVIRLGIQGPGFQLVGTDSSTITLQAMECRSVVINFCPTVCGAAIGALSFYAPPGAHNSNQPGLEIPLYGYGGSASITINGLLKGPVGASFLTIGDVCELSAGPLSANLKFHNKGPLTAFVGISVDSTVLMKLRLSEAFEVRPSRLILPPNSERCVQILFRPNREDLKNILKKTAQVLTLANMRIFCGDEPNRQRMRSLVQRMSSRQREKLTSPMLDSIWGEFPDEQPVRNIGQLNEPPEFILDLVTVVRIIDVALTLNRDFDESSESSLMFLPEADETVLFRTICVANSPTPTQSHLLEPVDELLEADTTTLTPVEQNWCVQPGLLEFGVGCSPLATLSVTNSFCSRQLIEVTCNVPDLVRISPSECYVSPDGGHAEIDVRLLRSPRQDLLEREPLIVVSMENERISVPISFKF

No constants are given. Whether binding was seen depends on the method and setting. For some of these results: A result given as binding can be weak or reduced; the word gives no strength. For some of these results: Where a sequence is shown, tags or fusion partners need not be part of it.

In test [1] the target is Spd-2-GFP (Drosophila melanogaster) (UniProt Q9VV79). The test can be described thus: recruitment to nanobody-coated beads injected into living embryos (fluorescence microscopy); streptavidin magnetic beads coupled to biotinylated anti-GFP nanobody, injected with mRNA encoding GFP or a GFP fusion (bait) into Drosophila embryos expressing RFP-Cnn or mCherry-TACC; red signal on the beads imaged by spinning disk confocal microscopy.

Test [2] concerns the target WT Spd-2-ALFA (Drosophila melanogaster) (UniProt Q9VV79). The test can be described thus: recruitment to nanobody-coated beads injected into living embryos (fluorescence microscopy); streptavidin magnetic beads coupled to biotinylated anti-ALFA-tag nanobody, injected with mRNA encoding ALFA-tagged WT or mutant Spd-2 (bait) into Drosophila embryos expressing Polo-GFP and RFP-Cnn or AurA-GFP and mCherry-TACC; signal on the beads imaged by spinning disk confocal microscopy.

The target in test [3] is Spd-2∆ABD1-ALFA (Drosophila melanogaster). The description is as above.
Test [4] concerns the target Spd-2∆ABD2-ALFA (Drosophila melanogaster). The test is described as above.
In test [5] the target is Spd-2∆Polo-ALFA (Drosophila melanogaster). The description is as above.
The target in test [6] is Spd-2∆Polo-∆ABD1 (Drosophila melanogaster). Described as above.

Regarding mCherry-TACC (from UniProt Q9VN51), the binding entry in test [1] and in test [2] was “binds” each time.

B1: AurA-GFP (enzyme, UniProt Q27393 1-421)
chain: MSHPSDHVLRPKENAPHRMPEKSAAVLNMQKNLLLGKKPNSENMAPDSKPLPGSSGALIRSAATTVRPATKPGLGGSNSIASSEGNNFQKPMVPSVKKTTSEFAAPAPVAPIKKPESLSKQKPTAASSESSKELGAASSSAEKEKTKTETQPQKPKKTWELNNFDIGRLLGRGKFGNVYLAREKESQFVVALKVLFKRQIGESNVEHQVRREIEIQSHLRHPHILRLYAYFHDDVRIYLILEYAPQGTLFNALQAQPMKRFDERQSATYIQALCSALLYLHERDIIHRDIKPENLLLGHKGVLKIADFGWSVHEPNSMRMTLCGTVDYLPPEMVQGKPHTKNVDLWSLGVLCFELLVGHAPFYSKNYDETYKKILKVDYKLPEHISKAASHLISKLLVLNPQHRLPLDQVMVHPWILAHTQ
As for B1, the binding result in test [3] was “binds weakly”; in test [4], “no binding”; in test [5], “binds”; in test [2], “binds”; in test [6], “binds weakly”.
